These are yes or no findings as the source states them, for the method shown. Some results given as binding are weak or reduced against the parent protein; the word gives no strength.
Tests used:
[1] = target: HA-SNAP-mGluR2 (rat metabotropic glutamate receptor 2) (rat) (UniProt P31421); test: single molecule pulldown
[2] = target: HA-SNAP-mGluR5 (human metabotropic glutamate receptor 5) (human) (UniProt P41594); test: single molecule pulldown

Protein sequences, listed by entry. Tags and fused reporters are not part of them. Residues count along the entry.
UniProt P31421, 19-872: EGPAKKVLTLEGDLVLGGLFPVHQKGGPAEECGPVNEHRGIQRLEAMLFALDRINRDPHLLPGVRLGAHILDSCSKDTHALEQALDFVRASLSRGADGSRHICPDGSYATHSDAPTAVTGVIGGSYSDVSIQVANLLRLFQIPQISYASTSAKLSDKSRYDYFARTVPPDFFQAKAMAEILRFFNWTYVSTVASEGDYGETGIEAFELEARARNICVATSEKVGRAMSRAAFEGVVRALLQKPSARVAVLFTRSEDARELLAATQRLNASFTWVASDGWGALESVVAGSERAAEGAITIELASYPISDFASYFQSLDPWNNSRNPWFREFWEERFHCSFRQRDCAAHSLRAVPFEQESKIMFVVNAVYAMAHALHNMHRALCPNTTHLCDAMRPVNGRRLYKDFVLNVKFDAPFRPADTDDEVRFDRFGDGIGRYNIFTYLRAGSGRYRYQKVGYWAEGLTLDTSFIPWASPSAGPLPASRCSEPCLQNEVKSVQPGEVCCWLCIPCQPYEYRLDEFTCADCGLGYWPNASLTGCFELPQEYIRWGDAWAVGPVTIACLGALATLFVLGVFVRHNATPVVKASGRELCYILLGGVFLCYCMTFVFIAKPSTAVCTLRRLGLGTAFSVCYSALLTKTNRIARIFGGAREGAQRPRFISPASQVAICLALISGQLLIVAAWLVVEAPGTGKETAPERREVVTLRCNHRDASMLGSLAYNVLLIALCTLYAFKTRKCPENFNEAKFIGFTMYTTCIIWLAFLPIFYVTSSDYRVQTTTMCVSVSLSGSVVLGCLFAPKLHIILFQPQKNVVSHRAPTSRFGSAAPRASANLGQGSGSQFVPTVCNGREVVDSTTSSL
UniProt P41594, 21-1212: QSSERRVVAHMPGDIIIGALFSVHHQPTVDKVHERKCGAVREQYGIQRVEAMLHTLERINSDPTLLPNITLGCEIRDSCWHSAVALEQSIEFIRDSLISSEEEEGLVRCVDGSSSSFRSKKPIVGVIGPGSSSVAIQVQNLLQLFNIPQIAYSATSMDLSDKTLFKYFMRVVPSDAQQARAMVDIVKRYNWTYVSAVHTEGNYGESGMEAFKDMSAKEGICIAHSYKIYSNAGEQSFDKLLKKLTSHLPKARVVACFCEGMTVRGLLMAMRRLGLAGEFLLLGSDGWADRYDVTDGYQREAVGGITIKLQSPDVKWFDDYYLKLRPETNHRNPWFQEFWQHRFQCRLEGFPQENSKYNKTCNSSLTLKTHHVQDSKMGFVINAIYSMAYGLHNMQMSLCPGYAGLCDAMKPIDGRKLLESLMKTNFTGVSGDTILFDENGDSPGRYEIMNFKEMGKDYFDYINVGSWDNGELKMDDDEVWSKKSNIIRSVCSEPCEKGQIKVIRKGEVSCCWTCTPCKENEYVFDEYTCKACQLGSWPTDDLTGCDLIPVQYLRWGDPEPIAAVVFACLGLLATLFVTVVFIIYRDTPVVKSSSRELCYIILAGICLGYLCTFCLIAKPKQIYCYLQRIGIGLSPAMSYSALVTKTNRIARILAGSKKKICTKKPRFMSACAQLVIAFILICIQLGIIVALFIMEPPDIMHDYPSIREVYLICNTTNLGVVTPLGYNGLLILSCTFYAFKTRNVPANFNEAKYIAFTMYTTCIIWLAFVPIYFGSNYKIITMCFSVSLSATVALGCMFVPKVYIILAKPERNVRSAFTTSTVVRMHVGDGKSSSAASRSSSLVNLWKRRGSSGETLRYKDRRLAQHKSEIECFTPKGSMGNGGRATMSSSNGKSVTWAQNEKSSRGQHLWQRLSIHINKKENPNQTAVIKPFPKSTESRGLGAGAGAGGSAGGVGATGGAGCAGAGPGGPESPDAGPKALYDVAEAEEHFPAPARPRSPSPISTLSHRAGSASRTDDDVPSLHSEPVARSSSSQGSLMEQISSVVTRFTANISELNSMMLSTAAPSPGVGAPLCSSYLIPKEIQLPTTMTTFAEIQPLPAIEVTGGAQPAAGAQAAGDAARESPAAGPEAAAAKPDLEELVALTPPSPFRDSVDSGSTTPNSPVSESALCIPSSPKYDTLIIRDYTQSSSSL
UniProt O00222, 34-908: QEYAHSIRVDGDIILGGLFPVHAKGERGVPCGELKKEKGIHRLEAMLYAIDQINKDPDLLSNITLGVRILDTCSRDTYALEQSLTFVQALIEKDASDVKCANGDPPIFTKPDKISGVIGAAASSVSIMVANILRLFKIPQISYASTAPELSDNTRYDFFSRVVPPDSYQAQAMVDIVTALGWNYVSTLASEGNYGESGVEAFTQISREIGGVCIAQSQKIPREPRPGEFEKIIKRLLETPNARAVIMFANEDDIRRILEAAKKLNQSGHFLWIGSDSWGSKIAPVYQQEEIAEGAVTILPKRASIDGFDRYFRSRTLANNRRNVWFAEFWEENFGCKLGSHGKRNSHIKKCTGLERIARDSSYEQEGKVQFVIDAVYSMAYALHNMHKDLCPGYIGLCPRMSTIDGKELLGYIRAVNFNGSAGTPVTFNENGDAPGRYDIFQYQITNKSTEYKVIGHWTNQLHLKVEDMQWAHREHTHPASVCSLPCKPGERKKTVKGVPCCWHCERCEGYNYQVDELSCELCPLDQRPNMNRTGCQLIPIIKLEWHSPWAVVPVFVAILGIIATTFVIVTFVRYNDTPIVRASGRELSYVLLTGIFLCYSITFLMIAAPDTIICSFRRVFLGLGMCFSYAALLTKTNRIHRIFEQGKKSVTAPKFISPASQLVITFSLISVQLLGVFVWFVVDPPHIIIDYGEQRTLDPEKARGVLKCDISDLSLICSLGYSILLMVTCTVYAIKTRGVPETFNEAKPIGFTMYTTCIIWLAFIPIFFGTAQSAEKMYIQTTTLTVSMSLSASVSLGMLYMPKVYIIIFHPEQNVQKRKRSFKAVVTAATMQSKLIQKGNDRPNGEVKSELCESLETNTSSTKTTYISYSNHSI
UniProt P29066, whole entry: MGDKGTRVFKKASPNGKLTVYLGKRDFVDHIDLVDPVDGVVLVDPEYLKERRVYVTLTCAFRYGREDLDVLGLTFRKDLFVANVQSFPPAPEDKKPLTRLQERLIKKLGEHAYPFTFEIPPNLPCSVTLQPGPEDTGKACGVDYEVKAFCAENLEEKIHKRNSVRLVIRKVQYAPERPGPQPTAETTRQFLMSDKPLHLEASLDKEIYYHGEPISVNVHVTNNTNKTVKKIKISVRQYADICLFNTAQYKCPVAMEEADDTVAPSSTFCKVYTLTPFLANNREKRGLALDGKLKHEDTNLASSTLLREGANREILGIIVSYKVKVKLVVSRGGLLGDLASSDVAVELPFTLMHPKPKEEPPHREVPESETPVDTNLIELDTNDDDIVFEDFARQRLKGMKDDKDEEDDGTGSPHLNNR

Row | binding [1] | binding [2] | Substance
1 | binds |  | SNAP-mGluR8, wild type (subunit without HA for pulldown) (from UniProt O00222 34-908) (receptor)
2 | no binding (tested: <5% colocalization) | no binding | β-arr1-Halo (rat beta-arrestin 1, wild type, C-terminally Halo-tagged) (from UniProt P29066 1-418)
